This is an account of results in PubChem BioAssay AID2685 (National Center for Advancing Translational Sciences (NCATS), 2010).

The assay is described as follows: qHTS Assay for Lipid Storage Modulators in Drosophila S3 Cells.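 As to cell number change: cells counted by Cell Tracker Red CMTPX staining in the red channel.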 The note with it: BODIPY lipid droplet fluorescence, 18-24 h; for cell number change: measured here: cell count max response, cells fed with added oleic acid. The gist of the method:
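Drosophila S3 cells got compounds at several concentrations plus oleic acid (400 uM solution). Laser-scanning cytometry with 488 nm excitation read lipid droplets at 500-530 nm and cells at 575-640 nm. Percent activity was relative to 20 uM Triacsin C.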
On the technique in general: qHTS replaces the single test concentration by a dilution series.

[1] abbreviates: measured here: cell number channel AC50, cells fed with added oleic acid.
Where [2] appears, read: measured here: lipid fluorescence (Fed channel) AC50, cells fed with added oleic acid.

What is called AC50 is the concentration at which the activity in the assay is half-maximal. Read a low AC50 as greater potency.

The structures appear in SMILES notation. Some of the results follow. Shown are side measurements of this screen, not its main read-out; they come without a call. The list favours compounds with an active or inconclusive main result. Potencies come from curve fits of mixed quality, noted in brackets.

`Nc1nc(NCc2ccco2)nc(N2CCCCC2)c1[N+](=O)[O-]`: the cell number change was -16.8%. The AC50 under setting [1] is 0.00411 µM [rising, full curve, poor fit]. Further, the AC50 under setting [2] was 29.1 µM [falling, partial curve, poor fit].

In the case of `Cc1ccc([N+](=O)[O-])cc1NC(=O)Nc1cccc(F)c1`, the cell number change is -56.4%. Further, under setting [1], the AC50 was 29.1 µM [falling, single point]. Under setting [2], the AC50 was 23.1 µM [falling, partial curve].

Regarding `COc1ccc(NC(=O)COc2ncnc3ccccc23)cc1S(=O)(=O)N1CCOCC1`, the cell number change was 81.7%. The AC50 under setting [2] is 3.66 µM [rising, full curve].

As for `O=C(CSc1nc2ccccc2[nH]1)Nc1ccc(F)c(F)c1`, the cell number change is -36.9%. Besides, under setting [1], the AC50 was 23.1 µM [falling, single point]. Also, under setting [2], the half-maximal activity concentration (AC50) is 2.59 µM [rising, partial curve].

As for `c1nc2sc3c(c2c2nnnn12)CCCC3`, the cell number change amounted to 3.71%.

As to `CC(C)NS(=O)(=O)c1ccc(OCC(=O)NCc2cccnc2)cc1`, the cell number change came to 6.76%. The AC50 under setting [1] was 0.731 µM [falling, single point].

Regarding `N#C/C(=C/c1ccc(N2CCOCC2)c([N+](=O)[O-])c1)C(N)=O`, the cell number change is -0.402%. Also, under setting [1], the AC50 is 0.82 µM [falling, full curve, poor fit]. In addition, the AC50 under setting [2] was 0.0058 µM [falling, full curve, poor fit].

Regarding `Cc1nc(NC(=O)CN(C)S(=O)(=O)c2ccc(Br)cc2)sc1C`, the cell number change was -8.17%. The AC50 under setting [2] is 1.84 µM [rising, partial curve].

Regarding `Cc1c(Cl)cccc1NC(=O)CSc1nncn1-c1ccccn1`, the cell number change is 14.5%.

Take `CCCCNC(=S)N/N=C/C1=CCC2CC1C2(C)C` (stereo not drawn): the cell number change was -100%. Moreover, the AC50 under setting [1] was 29.1 µM [falling, partial curve, poor fit].

On to `O=C(Cc1cc(=O)[nH][nH]1)N/N=C/c1c(F)cccc1Cl`, for which the cell number change is 6.12%. Moreover, the AC50 under setting [2] is 6.51 µM [falling, single point].

As to `CCCCCC(=O)N(O)C1CC(=O)N(c2ccccc2)C1=O` (stereo not drawn), the cell number change is -90.9%. Besides, the AC50 under setting [1] was 25.9 µM [falling, partial curve]. Moreover, the AC50 under setting [2] is 18.4 µM [falling, partial curve].

For `CC1CCCN(S(=O)(=O)c2ccc(C(=O)Nc3nnc(C4=COCCO4)o3)cc2)C1` (stereo not drawn), the AC50 under setting [2] was 29.1 µM [falling, single point].

In the case of `Cc1ccc(S(=O)(=O)N2CCN(C(=O)c3ccccc3)C2)cc1[N+](=O)[O-]`, the cell number change stood at 15.4%. Further, the AC50 under setting [2] was 0.146 µM [rising, full curve, poor fit].

In the case of `O=C(CN1CCCCC1)Nc1nc(-c2ccc(Cl)cc2)cs1`, the cell number change is -5.83%. For the same compound, the AC50 under setting [2] was 0.116 µM [falling, full curve, poor fit].

In the case of `NC(=O)CC(NC(=O)c1ccccc1)c1ccc(N2CCC(Br)CC2)c([N+](=O)[O-])c1` (stereo not drawn), the cell number change was -8.92%. For the same compound, the AC50 under setting [2] is 32.6 µM [falling, single point].

Regarding `CCC(C)[C@H](NC(=O)N1CCn2c1nc1ccccc12)C(=O)NCCc1ccccc1` (stereo partly drawn), the cell number change was -6.6%.

On to `COC(=O)Nc1c(C)n(C)n(-c2ccccc2)c1=O`, for which the AC50 under setting [1] is 0.206 µM [rising, full curve, poor fit].

Consider `O=[N+]([O-])c1cccc2ccc(N3CCOCC3)nc12`, for which the cell number change came out at 2.92%. In addition, under setting [2], the AC50 was 6.51 µM [falling, single point].

Regarding `O=C(Nc1ccc([N+](=O)[O-])cc1)Nc1ccon1`, the cell number change was -12.4%. For the same compound, the AC50 under setting [2] is 6.51 µM [falling, single point].

Turning to `CC(C)(C)[C@H](NC(=O)c1ccc(N)c(Cl)c1)C(=O)N1CCC[C@H]1C(=O)N[C@H](C#N)Cc1nn[nH]n1`, the AC50 was 0.0517 µM [falling, full curve, poor fit] under setting [1] and 0.731 µM [falling, single point] under setting [2].

Regarding `Cc1ccc(-c2csc(=S)n2CC(=O)OCC(=O)NCc2ccc(F)cc2)cc1`, the cell number change stood at 31.1%. Besides, the AC50 under setting [1] was 0.517 µM [rising, full curve]. Besides, the AC50 under setting [2] was 0.58 µM [rising, single point].

For the compound `CCCN(CCC)Cc1c(C(=O)OCC)nnn1-c1nonc1N`, the cell number change is -19.3%. The AC50 under setting [2] is 3.66 µM [rising, single point].

For the compound `Cn1c(Cc2nc3ccccc3n2C)nc2ccccc21`, the cell number change came to 16.4%.

In the case of `O=Nc1c(-c2cccc([N+](=O)[O-])c2)nc2ncccn12`, the cell number change was -58.3%. Moreover, the AC50 under setting [1] was 18.4 µM [falling, single point]. Besides, the AC50 under setting [2] is 20.6 µM [falling, single point].

Consider `COc1ccccc1/C=C/C=N\N1CCN(Cc2ccccc2Cl)CC1`, for which the cell number change turned out to be 2.63%. Besides, the AC50 under setting [2] was 0.651 µM [rising, full curve].

On to `COc1ccc(OC)c(N/C(C)=C/C(=O)c2ccc(C)o2)c1`, for which the AC50 is 6.51 µM [rising, single point] under setting [1] and 5.8 µM [rising, full curve] under setting [2].

Take `O=C(CC1C(=O)NC2CCCCC2N1C(=O)c1ccc(F)cc1)Nc1ccccc1` (stereo not drawn): under setting [2], the half-maximal activity concentration (AC50) was 23.1 µM [falling, partial curve, poor fit].

Consider `O=C(CCCn1c(=S)[nH]c2cc3c(cc2c1=O)OCO3)N1CCN(c2ncccn2)CC1`, for which the cell number change is -35.2%. The AC50 under setting [1] is 29.1 µM [falling, single point].

Take `O=C(c1ccc(S(=O)(=O)NCC2CCCO2)cc1)N1CCN(c2ccccc2)CC1` (stereo not drawn): the cell number change was -16%. Further, under setting [1], the AC50 was 2.06 µM [falling, single point]. In addition, under setting [2], the half-maximal activity concentration (AC50) was 1.03 µM [falling, full curve, poor fit].

Consider `O=C(O)C1CCN(c2ccc(S(=O)(=O)N3CCOCC3)cc2[N+](=O)[O-])CC1`, for which the cell number change was -12.9%. Under setting [2], the AC50 is 0.58 µM [falling, partial curve, poor fit].

For the compound `CCN(CC)CCNC(=O)c1ccc(NS(=O)(=O)c2ccc3c(c2)OCCO3)cc1`, the cell number change is 72.7%. Moreover, the AC50 under setting [1] was 18.4 µM [rising, single point].

As for `CN(C)C(CNC(=O)C1CC(=O)N(Cc2ccccc2)C1)c1ccccc1` (stereo not drawn), the cell number change turned out to be 6.42%. Moreover, the AC50 under setting [2] was 32.6 µM [falling, single point].

As to `Cc1ccc(OC(=O)c2ccccc2P(=O)(O)O)cc1`, the cell number change was -6.45%. In addition, the AC50 under setting [1] is 0.731 µM [falling, single point]. Also, the AC50 under setting [2] was 11.6 µM [falling, partial curve].

Regarding `O=C1/C(=C\c2ccco2)CCC/C1=C\c1ccco1`, under setting [2], the AC50 was 16.4 µM [falling, partial curve].

As to `CCC(=O)c1ccc(OCC(=O)Nc2ccccc2N2CCOCC2)cc1`, the cell number change was -14.8%. In addition, the AC50 under setting [2] is 6.51 µM [rising, full curve, poor fit].
